Data source: PubChem BioAssay AID602196 (INSERM, 2012)

Screen: 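Modifiers of cisplatin sensitivity in A549 cells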
System: human A549 lung cancer cells
Reagent: siRNA pair against human genes
Timing: 48 h transfection before cisplatin; time from cisplatin to read-out not stated
Conditions: cisplatin at a dose killing half of control-siRNA cells; exact dose and duration not given
Measured: 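Shift in cisplatin death relative to control siRNA, from -50 (all cells die) to +50 (no cells die); siRNAs harmful on their own scored 0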
Scale: two-siRNA summed score (-2 to +2): higher = both siRNAs protect from cisplatin killing; -2 means both sensitise
Call rule: 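Each siRNA scores 0 if harmful alone by LDH or WST-1, otherwise +1 if it reduces and -1 if it increases cisplatin killing; a gene is active when both siRNAs agree (sum +2 or -2)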
Meaning of the calls: active = both siRNAs shift cisplatin killing the same way; inactive = no consistent shift, or siRNA harmful alone
The deposit covers about 23,000 reagents; shown is a random part of them. 455 of all reagents (2%) were called active. 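Active includes both protection and sensitisation; some change values fall well beyond the stated -50 to +50 range.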 Further read-outs or replicates are left out here. Reagent sequences are not shown. Not stated in the record: the amount of reagent.

The opening 7 entries as a preview:
| Gene | two-siRNA summed score (-2 to +2) | Call |
| --- | --- | --- |
| KRTDAP (keratinocyte differentiation associated protein) | 1 | inactive |
| VAX2 (ventral anterior homeobox 2) | 0 | inactive |
| WWOX (WW domain containing oxidoreductase) | 0 | inactive |
| H2AC1 (H2A clustered histone 1) | 1 | inactive |
| ANKRD30BP2 (ANKRD30B pseudogene 2) | 0 | inactive |
| MINDY3 (MINDY lysine 48 deubiquitinase 3) | 1 | inactive |
| XKRY (XK related, Y-linked (pseudogene)) | 0 | inactive |

Results, from the start:
| Gene | two-siRNA summed score (-2 to +2) | Call |
| --- | --- | --- |
| KRTDAP (keratinocyte differentiation associated protein) | 1 | inactive |
| VAX2 (ventral anterior homeobox 2) | 0 | inactive |
| WWOX (WW domain containing oxidoreductase) | 0 | inactive |
| H2AC1 (H2A clustered histone 1) | 1 | inactive |
| ANKRD30BP2 (ANKRD30B pseudogene 2) | 0 | inactive |
| MINDY3 (MINDY lysine 48 deubiquitinase 3) | 1 | inactive |
| XKRY (XK related, Y-linked (pseudogene)) | 0 | inactive |
| G2E3 (G2/M-phase specific E3 ubiquitin protein ligase) | 0 | inactive |
| TARS2 (threonyl-tRNA synthetase 2, mitochondrial) | 0 | inactive |
| EPSTI1 (epithelial stromal interaction 1) | -1 | inactive |
| PRKAB1 (protein kinase AMP-activated non-catalytic subunit beta 1) | 1 | inactive |
| ADRB2 (adrenoceptor beta 2) | 0 | inactive |
| LINC00971 (long independently transcribed non-coding RNA 971) | 0 | inactive |
| KIAA1191 | 0 | inactive |
| SMYD3 (SET and MYND domain containing 3) | 0 | inactive |
| GRK6 (G protein-coupled receptor kinase 6) | -1 | inactive |
| COMMD4 (COMM domain containing 4) | -1 | inactive |
| BAG3 (BAG cochaperone 3) | 0 | inactive |
| TNFSF11 (TNF superfamily member 11) | 0 | inactive |
| COA4 (cytochrome c oxidase assembly factor 4 homolog) | 0 | inactive |
| NR2F6 (nuclear receptor subfamily 2 group F member 6) | 0 | inactive |
| ZC3H10 (zinc finger CCCH-type containing 10) | 0 | inactive |
| GAB3 (GRB2 associated binding protein 3) | 0 | inactive |
| SERPINA4 (serpin family A member 4) | 0 | inactive |
| CLEC4D (C-type lectin domain family 4 member D) | 0 | inactive |
| ZNF71 (zinc finger protein 71) | 0 | inactive |
| PLA2G12B (phospholipase A2 group XIIB) | 0 | inactive |
| IGF1 (insulin like growth factor 1) | 0 | inactive |
| DGCR8 (DGCR8 microprocessor complex subunit) | 0 | inactive |
| RAB5A (RAB5A, member RAS oncogene family) | 0 | inactive |
| KIF1B (kinesin family member 1B) | 0 | inactive |
| ABCB1 (ATP binding cassette subfamily B member 1) | 0 | inactive |
| LOC285188 | 0 | inactive |
| LOC391269 | 1 | inactive |
| SLC16A3 | 0 | inactive |
| PEDS1 (plasmanylethanolamine desaturase 1) | 0 | inactive |
| NME6 (NME/NM23 nucleoside diphosphate kinase 6) | 0 | inactive |
| FGF8 (fibroblast growth factor 8) | 0 | inactive |
| NKD2 (NKD inhibitor of Wnt signaling pathway 2) | 0 | inactive |
| LOC441490 | 1 | inactive |
| SIRPB1 (signal regulatory protein beta 1) | 0 | inactive |
| LOC440414 | 1 | inactive |
| STARD9 (StAR related lipid transfer domain containing 9) | 0 | inactive |
| MYRFL (myelin regulatory factor like) | -1 | inactive |
| WFDC9 (WAP four-disulfide core domain 9) | 1 | inactive |
| ABCC2 (ATP binding cassette subfamily C member 2) | 0 | inactive |
| LOC401845 | 0 | inactive |
| FGF22 (fibroblast growth factor 22) | 0 | inactive |
| H2AC18 (H2A clustered histone 18) | 0 | inactive |
| OR8B3 (olfactory receptor family 8 subfamily B member 3) | 0 | inactive |
| LOC137829 | 0 | inactive |
| FLJ38144 | 0 | inactive |
| RNF38 (ring finger protein 38) | 0 | inactive |
| PPIG (peptidylprolyl isomerase G) | -1 | inactive |
| LOC440911 | 0 | inactive |
| PCDHA12 (protocadherin alpha 12) | 0 | inactive |
| PITX3 (paired like homeodomain 3) | -1 | inactive |
| ZBTB49 (zinc finger and BTB domain containing 49) | 0 | inactive |
| ARHGAP42 (Rho GTPase activating protein 42) | 0 | inactive |
| LOC441004 | 0 | inactive |
| KIF13A (kinesin family member 13A) | -1 | inactive |
| PCDHGC3 (protocadherin gamma subfamily C, 3) | 0 | inactive |
| CDCA7L (cell division cycle associated 7 like) | 1 | inactive |
| AGPAT1 (1-acylglycerol-3-phosphate O-acyltransferase 1) | 0 | inactive |
| CCNJ (cyclin J) | 0 | inactive |
| LOC441499 | -1 | inactive |
| SYT10 (synaptotagmin 10) | 1 | inactive |
| LINC00635 (long independently transcribed non-coding RNA 635) | 0 | inactive |
| LOC391784 | 1 | inactive |
| FAM41C (family with sequence similarity 41 member C) | 0 | inactive |
| LOC440678 | 0 | inactive |
| MAP3K1 (mitogen-activated protein kinase kinase kinase 1) | 0 | inactive |
| OGFRP1 (opioid growth factor receptor pseudogene 1) | 1 | inactive |
